Assay results from patent publication US12528847B2, “Heterodimeric inactivatable chimeric antigen receptors” (Ludwig Institute for Cancer Research Ltd, priority 2018, dated 2026).
Some entries share one result that the patent states for a list of compounds.

System: PC3-PIP tumor cells and primary human T-cells
Experiment: IncuCyte direct drug toxicity in vitro
Type: cell-based
Conditions: 24 h
Experimental: In FIG. 23A, IncuCyte® measurements of tumor cell death (as measured by total red area/mm^2) for PC3-PIP cells over 24 h co-incubation with increasing concentrations of Drug-1 and -2. Representative images of tumor cell death under the different conditions at 24 h (Scale=300 μm). In FIG. 23B, IncuCyte® measurements of CD4+ and CD8+ T cell death (as measured by total red area/mm^2) over 24 h co-incubation with increasing concentrations of Drug-1 and -2 (n=4).
For these assays, PC3 and PC3-PIP cell lines were employed, the latter modified to stably overexpress human PSMA (FIGS. 22A and 21)^43.

## Cc1c(-c2ccc(N3CCc4cccc(C(=O)Nc5nc6ccccc6s5)c4C3)nc2C(=O)O)cnn1CC12CC3CC(CC(C3)C1)C2 [A-1331852]
  concentrations toxic in vitro to PC3-PIP tumor cells and impairing primary human T-cell function: greater than 10 μM
